Laboratory results reported in the supplement of paper PMC10849652.
Some of the results follow.

By UniProt entry, the sequences of proteins in these tests, tags left out. Where a name states a change or a piece, a line headed by the entry shows the natural chain unless it says otherwise.
UniProt P04075: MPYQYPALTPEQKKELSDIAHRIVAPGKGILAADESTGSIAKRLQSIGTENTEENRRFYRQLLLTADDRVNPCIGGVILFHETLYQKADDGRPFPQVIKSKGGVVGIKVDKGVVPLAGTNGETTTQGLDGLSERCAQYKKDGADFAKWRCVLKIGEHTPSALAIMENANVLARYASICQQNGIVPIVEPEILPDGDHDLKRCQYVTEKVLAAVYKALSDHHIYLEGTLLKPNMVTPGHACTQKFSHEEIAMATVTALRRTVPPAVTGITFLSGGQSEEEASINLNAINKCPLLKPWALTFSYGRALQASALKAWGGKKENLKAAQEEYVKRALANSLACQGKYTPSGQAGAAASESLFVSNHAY
UniProt Q6UB99: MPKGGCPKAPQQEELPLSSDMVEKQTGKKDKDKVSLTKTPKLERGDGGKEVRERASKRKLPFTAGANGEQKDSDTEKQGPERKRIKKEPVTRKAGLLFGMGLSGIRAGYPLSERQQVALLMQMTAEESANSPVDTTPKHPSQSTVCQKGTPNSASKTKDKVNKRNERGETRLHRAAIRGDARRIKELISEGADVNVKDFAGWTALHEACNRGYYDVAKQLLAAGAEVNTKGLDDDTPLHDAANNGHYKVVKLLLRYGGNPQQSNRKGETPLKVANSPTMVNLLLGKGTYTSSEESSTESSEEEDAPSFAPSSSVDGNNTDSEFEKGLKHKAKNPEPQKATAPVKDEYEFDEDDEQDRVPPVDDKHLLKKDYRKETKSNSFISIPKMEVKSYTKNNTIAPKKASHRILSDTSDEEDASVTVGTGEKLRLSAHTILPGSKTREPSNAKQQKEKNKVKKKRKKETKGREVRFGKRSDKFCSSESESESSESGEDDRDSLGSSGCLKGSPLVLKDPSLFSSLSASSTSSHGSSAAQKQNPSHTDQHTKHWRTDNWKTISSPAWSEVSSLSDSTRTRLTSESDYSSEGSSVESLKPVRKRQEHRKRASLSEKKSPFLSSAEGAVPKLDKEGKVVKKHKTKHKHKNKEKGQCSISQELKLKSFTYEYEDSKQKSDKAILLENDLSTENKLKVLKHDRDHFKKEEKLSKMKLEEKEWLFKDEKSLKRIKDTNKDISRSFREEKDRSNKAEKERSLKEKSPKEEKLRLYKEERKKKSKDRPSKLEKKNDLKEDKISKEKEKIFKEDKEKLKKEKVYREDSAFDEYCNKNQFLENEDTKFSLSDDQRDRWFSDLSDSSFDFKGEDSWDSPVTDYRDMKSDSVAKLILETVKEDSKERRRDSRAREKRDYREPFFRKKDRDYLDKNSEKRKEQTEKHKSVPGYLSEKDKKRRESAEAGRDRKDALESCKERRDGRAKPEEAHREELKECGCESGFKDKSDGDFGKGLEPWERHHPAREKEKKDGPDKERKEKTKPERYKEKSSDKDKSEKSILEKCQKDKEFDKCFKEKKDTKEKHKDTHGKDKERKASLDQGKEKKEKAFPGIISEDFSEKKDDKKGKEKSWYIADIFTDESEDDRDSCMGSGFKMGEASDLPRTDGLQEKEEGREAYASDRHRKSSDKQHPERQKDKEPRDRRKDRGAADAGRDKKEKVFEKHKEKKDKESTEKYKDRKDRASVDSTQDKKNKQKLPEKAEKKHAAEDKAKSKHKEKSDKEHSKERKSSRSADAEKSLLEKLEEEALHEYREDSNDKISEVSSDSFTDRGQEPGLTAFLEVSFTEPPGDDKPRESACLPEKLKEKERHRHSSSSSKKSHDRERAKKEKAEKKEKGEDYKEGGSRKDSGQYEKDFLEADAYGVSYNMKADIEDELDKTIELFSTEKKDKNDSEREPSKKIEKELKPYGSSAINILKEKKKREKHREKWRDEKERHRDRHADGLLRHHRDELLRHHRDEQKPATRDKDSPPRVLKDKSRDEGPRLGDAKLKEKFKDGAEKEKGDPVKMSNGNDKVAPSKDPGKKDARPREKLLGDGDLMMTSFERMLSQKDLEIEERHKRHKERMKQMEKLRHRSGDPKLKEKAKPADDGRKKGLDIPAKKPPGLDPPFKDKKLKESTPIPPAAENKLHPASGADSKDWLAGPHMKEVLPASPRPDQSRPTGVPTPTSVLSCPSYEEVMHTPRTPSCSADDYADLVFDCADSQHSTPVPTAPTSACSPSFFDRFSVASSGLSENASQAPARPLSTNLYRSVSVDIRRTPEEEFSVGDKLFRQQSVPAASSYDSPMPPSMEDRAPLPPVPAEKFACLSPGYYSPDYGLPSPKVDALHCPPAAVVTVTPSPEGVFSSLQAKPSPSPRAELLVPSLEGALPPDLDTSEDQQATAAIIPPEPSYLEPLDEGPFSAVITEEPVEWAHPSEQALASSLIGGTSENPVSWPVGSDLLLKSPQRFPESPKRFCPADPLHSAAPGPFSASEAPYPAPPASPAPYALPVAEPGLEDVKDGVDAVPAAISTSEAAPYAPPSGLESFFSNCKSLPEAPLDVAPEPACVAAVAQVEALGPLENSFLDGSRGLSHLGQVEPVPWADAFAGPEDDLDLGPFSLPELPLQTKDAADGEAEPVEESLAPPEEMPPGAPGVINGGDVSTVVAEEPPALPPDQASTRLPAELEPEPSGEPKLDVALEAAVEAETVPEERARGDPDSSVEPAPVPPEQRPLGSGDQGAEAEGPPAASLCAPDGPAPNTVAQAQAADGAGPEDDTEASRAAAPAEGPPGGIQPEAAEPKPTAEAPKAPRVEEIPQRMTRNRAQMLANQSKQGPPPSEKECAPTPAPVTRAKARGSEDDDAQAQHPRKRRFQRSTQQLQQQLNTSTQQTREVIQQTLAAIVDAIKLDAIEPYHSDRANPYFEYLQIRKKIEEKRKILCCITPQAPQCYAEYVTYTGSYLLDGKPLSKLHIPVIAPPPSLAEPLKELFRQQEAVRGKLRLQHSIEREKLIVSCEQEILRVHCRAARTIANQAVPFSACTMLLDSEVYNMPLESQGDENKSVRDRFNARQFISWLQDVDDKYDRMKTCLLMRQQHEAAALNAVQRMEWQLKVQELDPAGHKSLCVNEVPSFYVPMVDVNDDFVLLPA
UniProt Q13367: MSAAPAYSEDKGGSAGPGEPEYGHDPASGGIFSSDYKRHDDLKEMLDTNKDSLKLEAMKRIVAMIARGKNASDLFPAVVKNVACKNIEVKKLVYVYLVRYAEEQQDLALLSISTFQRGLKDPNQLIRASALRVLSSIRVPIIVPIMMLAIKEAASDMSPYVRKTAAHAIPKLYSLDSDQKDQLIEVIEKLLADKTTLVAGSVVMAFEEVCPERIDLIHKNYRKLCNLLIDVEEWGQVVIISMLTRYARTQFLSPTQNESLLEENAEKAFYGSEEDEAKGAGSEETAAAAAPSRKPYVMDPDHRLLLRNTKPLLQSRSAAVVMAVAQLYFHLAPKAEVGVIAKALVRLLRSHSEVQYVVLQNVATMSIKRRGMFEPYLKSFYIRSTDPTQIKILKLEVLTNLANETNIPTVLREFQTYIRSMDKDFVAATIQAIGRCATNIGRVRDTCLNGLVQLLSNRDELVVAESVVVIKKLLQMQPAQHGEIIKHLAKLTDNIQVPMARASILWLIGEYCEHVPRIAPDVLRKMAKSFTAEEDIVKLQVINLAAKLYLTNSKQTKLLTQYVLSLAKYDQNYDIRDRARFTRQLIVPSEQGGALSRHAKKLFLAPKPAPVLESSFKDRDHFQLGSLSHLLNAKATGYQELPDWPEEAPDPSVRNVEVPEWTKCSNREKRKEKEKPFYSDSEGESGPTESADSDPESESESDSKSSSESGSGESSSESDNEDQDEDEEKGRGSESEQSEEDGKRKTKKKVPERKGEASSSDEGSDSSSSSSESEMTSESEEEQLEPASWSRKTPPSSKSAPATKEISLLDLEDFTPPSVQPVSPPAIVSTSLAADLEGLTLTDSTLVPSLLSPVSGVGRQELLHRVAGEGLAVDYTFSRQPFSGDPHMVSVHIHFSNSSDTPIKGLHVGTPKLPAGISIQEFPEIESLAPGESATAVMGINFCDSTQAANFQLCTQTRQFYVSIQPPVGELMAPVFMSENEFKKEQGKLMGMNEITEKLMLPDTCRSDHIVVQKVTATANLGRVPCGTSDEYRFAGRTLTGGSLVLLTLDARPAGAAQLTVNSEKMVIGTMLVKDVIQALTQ
UniProt P30038: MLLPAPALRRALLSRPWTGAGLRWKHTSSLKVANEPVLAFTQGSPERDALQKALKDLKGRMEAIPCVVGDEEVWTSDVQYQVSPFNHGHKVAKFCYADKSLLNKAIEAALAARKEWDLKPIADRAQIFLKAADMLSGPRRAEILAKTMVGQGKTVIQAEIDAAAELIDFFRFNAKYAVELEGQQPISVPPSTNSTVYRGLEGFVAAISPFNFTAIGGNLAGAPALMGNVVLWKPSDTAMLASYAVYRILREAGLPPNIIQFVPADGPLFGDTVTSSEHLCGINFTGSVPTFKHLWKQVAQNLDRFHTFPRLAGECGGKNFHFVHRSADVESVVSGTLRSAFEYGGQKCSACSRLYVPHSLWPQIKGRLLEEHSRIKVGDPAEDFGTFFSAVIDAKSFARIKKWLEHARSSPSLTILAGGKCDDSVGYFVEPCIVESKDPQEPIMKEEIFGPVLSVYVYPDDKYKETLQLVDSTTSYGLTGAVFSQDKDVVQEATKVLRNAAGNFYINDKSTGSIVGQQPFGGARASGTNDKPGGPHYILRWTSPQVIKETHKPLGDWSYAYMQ
UniProt Q9NW15: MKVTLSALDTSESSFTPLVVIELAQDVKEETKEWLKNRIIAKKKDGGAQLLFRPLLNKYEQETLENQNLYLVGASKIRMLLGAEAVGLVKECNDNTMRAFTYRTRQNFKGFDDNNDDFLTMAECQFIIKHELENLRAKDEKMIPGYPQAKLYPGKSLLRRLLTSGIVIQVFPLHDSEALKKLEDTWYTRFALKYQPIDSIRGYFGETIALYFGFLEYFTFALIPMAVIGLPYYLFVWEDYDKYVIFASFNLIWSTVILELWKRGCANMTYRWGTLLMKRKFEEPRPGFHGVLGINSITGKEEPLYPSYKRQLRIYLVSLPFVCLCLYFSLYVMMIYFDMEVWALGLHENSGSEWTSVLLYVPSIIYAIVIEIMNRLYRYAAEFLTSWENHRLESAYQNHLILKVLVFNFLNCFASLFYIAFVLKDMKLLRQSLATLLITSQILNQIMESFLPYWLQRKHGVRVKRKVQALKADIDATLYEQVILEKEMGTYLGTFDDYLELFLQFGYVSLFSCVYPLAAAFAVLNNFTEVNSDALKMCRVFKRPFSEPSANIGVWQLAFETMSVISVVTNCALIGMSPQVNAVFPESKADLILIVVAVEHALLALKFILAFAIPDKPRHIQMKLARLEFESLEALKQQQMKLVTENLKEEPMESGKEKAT
UniProt P61966: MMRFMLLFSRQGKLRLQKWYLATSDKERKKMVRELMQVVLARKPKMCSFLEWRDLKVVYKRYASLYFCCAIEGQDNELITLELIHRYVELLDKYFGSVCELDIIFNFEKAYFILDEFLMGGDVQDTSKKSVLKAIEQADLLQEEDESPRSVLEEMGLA
UniProt Q3SY69: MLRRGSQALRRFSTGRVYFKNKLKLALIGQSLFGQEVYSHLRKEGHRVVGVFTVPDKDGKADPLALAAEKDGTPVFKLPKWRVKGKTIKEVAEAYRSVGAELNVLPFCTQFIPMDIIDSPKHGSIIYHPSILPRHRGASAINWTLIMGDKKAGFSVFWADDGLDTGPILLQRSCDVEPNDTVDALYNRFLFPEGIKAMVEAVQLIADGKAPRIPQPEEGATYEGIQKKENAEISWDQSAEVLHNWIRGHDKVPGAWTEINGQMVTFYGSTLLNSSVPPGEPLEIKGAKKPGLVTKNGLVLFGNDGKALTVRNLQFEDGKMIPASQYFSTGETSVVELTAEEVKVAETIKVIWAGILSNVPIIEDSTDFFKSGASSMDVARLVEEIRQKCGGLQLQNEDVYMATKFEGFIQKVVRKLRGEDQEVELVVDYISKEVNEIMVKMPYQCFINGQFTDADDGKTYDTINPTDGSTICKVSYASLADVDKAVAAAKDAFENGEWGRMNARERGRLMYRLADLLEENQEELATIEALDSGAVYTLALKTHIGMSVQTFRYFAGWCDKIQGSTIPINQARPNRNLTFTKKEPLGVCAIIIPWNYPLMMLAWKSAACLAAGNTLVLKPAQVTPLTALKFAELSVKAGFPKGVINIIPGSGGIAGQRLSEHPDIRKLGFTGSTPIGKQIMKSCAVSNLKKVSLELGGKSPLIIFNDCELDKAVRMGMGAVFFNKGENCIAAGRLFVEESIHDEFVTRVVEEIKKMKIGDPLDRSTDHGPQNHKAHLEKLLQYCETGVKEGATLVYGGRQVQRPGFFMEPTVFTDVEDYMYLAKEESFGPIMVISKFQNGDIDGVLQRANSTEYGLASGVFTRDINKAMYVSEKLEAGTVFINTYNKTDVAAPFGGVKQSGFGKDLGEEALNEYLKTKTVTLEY

Compound: CNc1nc(-c2ccc3c(N)n[nH]c3c2)cc(N2C[C@@H](C(=O)NC3CCCCC3)CC[C@H]2C)n1
Assay: log2 fold change, soluble protein after heating vs DMSO (PISA); higher = thermal stabilisation; K562 lysate, 10 uM; active = over 0.2 and 3.5 SD of the protein, either way, in both replicates (recomputed)
Procedure, shortened: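 Following dounce homogenisation of K562 pellets in PBS pH 7.4 with 1 mM MgCl2, crude extract at 1 mg/mL protein was incubated for 30 min with 10 μM compound. Aliquots were then heated for 3 min over 48°C-58°C and pooled, NP-40 was added to 0.5% at 4°C, and soluble protein was recovered as the supernatant at 21,000xg for 90 min. Channel-sum-equalised TMTpro 16plex LC-MS/MS quantified this protein. Each value, from duplicates, is a log-two fold change in thermal stability relative to solvent controls.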

log2 fold change, inactive:
ALDH1A1 (UniProt P00352) -0.037, ALDOA (UniProt P04075) 0.007, ALG2 (UniProt Q9H553) 0.097, ANP32B (UniProt Q92688) 0.018, ANKRD30B (UniProt Q9BXX2) 0.284, ANKRD11 (UniProt Q6UB99) -0.128, ANKRD52 (UniProt Q8NB46) 0.014, AP3B2 isoform 4 (UniProt Q13367) 0.025, ALG13 (UniProt Q9NP73) 0.053, ANKFY1 isoform 4 (UniProt Q9P2R3) 0.004, AP4E1 (UniProt Q9UPM8) -0.005, ANKHD1 isoform 6 (UniProt Q8IWZ3) -0.017, ALDH4A1 (UniProt P30038) 0.067, ALDH9A1 isoform 3 (UniProt P49189) 0, ALKBH2 (UniProt Q6NS38) 0.061, ALDH6A1 (UniProt Q02252) 0.091, ANAPC5 (UniProt Q9UJX4) -0.022, AKT1 (UniProt P31749) -0.05, ANO10 (UniProt Q9NW15) -0.024, AP1S1 (UniProt P61966) -0.053, ALDH1B1 (UniProt P30837) 0.007, ALDH1L2 (UniProt Q3SY69) -0.021
